Reference: article doi:10.1101/2025.03.06.641798
Results are given in words; binding and its absence hold for the method and conditions named. In cells and extracts the contact can be indirect. Here binding means that the protein was enriched with, or labelled near, the bait; the list need not be complete.

The chains behind the UniProt entries cited, without tags or fusion partners. Where a name states a change or a piece, a line headed by the entry shows the natural chain unless it says otherwise.
UniProt Q86VE9: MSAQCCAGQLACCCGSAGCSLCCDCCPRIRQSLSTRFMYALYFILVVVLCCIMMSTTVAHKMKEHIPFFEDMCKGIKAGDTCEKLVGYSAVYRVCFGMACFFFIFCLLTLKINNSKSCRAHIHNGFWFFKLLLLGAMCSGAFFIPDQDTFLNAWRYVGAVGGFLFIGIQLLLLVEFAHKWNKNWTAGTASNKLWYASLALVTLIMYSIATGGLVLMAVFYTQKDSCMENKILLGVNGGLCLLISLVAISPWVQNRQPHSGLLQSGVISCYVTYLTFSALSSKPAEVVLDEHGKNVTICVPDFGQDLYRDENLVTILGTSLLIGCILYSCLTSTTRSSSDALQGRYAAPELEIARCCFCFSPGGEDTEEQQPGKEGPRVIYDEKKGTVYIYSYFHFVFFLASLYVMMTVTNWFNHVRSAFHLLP
UniProt Q9Y6I9: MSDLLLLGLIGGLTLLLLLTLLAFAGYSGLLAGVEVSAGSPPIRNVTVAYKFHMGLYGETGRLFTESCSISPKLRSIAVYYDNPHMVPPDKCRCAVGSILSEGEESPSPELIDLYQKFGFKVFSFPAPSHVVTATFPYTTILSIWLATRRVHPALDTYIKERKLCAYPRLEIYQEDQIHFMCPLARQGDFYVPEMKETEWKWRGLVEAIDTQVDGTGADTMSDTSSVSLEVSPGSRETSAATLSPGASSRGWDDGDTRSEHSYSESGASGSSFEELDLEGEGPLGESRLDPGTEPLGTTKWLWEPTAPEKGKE

Biological target: Serine incorporator 5 (SERINC5) with a FLAG-tag (human) (UniProt Q86VE9)
Assay: affinity purification with mass spectrometry; Ser5-FLAG, Nef-HA and glycoGag-HA expressed in HEK293T cells; RIPA lysate incubated with anti-FLAG M2 magnetic beads or anti-HA Affinity Gel for 24 hours at 4 °C, washed with PBS five times, SDS-PAGE, Nano LC-MS/MS; 5 samples

TEX264, endogenous (from UniProt Q9Y6I9 1-313)
binding: binds

RETREG3, endogenous (from UniProt Q86VR2-1 1-466)
binding: binds

B1: ATL3, endogenous (protein, UniProt Q6DD88 1-541)
chain: MLSPQRVAAAASRGADDAMESSKPGPVQVVLVQKDQHSFELDEKALASILLQDHIRDLDVVVVSVAGAFRKGKSFILDFMLRYLYSQKESGHSNWLGDPEEPLTGFSWRGGSDPETTGIQIWSEVFTVEKPGGKKVAVVLMDTQGAFDSQSTVKDCATIFALSTMTSSVQIYNLSQNIQEDDLQQLQLFTEYGRLAMDEIFQKPFQTLMFLVRDWSFPYEYSYGLQGGMAFLDKRLQVKEHQHEEIQNVRNHIHSCFSDVTCFLLPHPGLQVATSPDFDGKLKDIAGEFKEQLQALIPYVLNPSKLMEKEINGSKVTCRGLLEYFKAYIKIYQGEDLPHPKSMLQATAEANNLAAAASAKDIYYNNMEEVCGGEKPYLSPDILEEKHCEFKQLALDHFKKTKKMGGKDFSFRYQQELEEEIKELYENFCKHNGSKNVFSTFRTPAVLFTGIVALYIASGLTGFIGLEVVAQLFNCMVGLLLIALLTWGYIRYSGQYRELGGAIDFGAAYVLEQASSHIGNSTQATVRDAVVGRPSMDKKAQ
binding: binds

B2: RETREG2, endogenous (protein, UniProt Q8NC44 1-543)
chain: MASGGGGGNTGAGGGPGMGLSLGLGLGLSLGMSEATSEAEEEAATAEAVGRLATTLWLRLRGWEAVLAAAQRLLVWEKPLHSLVTAAALNGLFWLLSSSSLRPFFLLSVSLLAYFLLDLWQPRFLPDVSASSPEEPHSDSEGAGSGARPHLLSVPELCRYLAESWLTFQIHLQELLQYKRQNPAQFCVRVCSGCAVLAVLGHYVPGIMISYIVLLSILLWPLVVYHELIQRMYTRLEPLLMQLDYSMKAEANALHHKHDKRKRQGKNAPPGGDEPLAETESESEAELAGFSPVVDVKKTALALAITDSELSDEEASILESGGFSVSRATTPQLTDVSEDLDQQSLPSEPEETLSRDLGEGEEGELAPPEDLLGRPQALSRQALDSEEEEEDVAAKETLLRLSSPLHFVNTHFNGAGSPPDGVKCSPGGPVETLSPETVSGGLTALPGTLSPPLCLVGSDPAPSPSILPPVPQDSPQPLPAPEEEEALTTEDFELLDQGELEQLNAELGLEPETPPKPPDAPPLGPDIHSLVQSDQEAQAVAEP
binding: binds
